Assay results reported in PubChem BioAssay AID743255 (National Center for Advancing Translational Sciences (NCATS), 2014).
Among all 390,000 compounds or so, about 910 (0.23%) were called active. Inconclusive results, whose numbers are uncertain, are shown with a selection of clear calls. Calls follow the shape of the dose curve; as a rule, active = well fitted inhibition curve with a large enough effect; inconclusive = small, poorly fitted or top-dose-only effect; inactive = no such curve, though single readings can be large or run the other way. Potencies of inconclusive entries are doubtful fits and often do not repeat.

Amino acid sequences for entries named in this document (tags omitted). A change or cut given only in a name is not applied to a line headed by its entry.
UniProt O94782: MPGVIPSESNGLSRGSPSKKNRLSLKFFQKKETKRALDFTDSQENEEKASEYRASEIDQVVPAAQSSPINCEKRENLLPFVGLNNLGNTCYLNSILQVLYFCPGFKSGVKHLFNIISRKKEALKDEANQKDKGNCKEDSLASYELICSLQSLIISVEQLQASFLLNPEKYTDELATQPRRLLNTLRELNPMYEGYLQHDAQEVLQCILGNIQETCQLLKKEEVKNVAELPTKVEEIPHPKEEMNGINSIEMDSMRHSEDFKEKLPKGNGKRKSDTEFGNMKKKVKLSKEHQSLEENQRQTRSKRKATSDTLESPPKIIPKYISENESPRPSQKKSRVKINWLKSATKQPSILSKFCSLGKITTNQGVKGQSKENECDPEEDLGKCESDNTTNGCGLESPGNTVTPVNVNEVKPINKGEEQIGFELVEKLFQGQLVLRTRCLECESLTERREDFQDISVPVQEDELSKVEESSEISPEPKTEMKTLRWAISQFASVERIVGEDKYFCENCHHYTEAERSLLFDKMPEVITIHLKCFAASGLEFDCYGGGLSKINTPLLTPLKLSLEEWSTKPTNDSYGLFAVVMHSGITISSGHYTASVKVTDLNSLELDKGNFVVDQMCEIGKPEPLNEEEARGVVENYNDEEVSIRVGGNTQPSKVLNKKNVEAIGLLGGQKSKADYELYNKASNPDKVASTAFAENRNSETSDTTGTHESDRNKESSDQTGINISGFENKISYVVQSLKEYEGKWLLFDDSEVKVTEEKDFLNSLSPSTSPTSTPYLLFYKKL

molecular target: Ubiquitin carboxyl-terminal hydrolase 1 (Homo sapiens) (UniProt O94782); assay: Inhibitors of USP1/UAF1: Primary Screen; conditions: recombinant USP1/UAF1, Ub-Rhodamine cleavage fluorescence; series mostly up to 57.1 µM; also: nearly all actives have a fitted effect of over 60% in size
Summary of the method: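 High-throughput fluorogenic screen: 1nM USP1/UAF1 complex, Ub-Rho substrate 150nM final, 50mM HEPES pH 7.8 with 0.5mM EDTA, 0.1 mg/ml BSA, 1mM TCEP and 0.01% Tween-20.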
Potency is read from the fitted curve at half-maximal effect.

| SMILES | Potency |
| --- | --- |
| CC(=O)C(Cc1cccc(F)c1)(Cc1cccc(F)c1)C(C)=O | inactive |
| COC(=O)Cn1cc(C(=O)C(C)(C)C)c2ccccc21 | inactive |
| NC(=O)c1oc2ccccc2c1NC(=O)c1nc2ccccc2s1 | inconclusive: 39.8 µM [inhibitor, partial curve, poor fit] |
| COc1cccc(C(=O)c2ccccc2NC(C)=O)c1 | inconclusive: 2.24 µM [inhibitor, full curve] |
| CC#CCN1c2ccccc2[C@]23C[C@@H](C(=O)OC)N(C(C)=O)C2=NC(C(=O)OC)=C(C(=O)OC)[C@H]13 | inconclusive: 4.47 µM [inhibitor, partial curve] |
| Cc1ccc(/C=C2/C(=O)c3ccc(C(=O)O)cc3C2=O)o1 | inconclusive: 20 µM [inhibitor, partial curve] |
| O=C(Nc1cc(Sc2nc3ccccc3s2)cc([N+](=O)[O-])c1)c1ccccc1 | inactive |
| C=CCn1c(SCC(=O)Nc2ccc(N3CCOCC3)cc2)nnc1-c1ccco1 | inconclusive: 10 µM [inhibitor, full curve, poor fit] |
| Cc1ccc(O)c(NC(=O)CCS(=O)(=O)c2nc(-c3ccc4c(c3)OCO4)cc(C(F)(F)F)n2)c1 | inconclusive: 0.708 µM [inhibitor, full curve, poor fit] |
| COc1ccc(-c2c(C#Cc3ccsc3)c3ccccc3n2C)cc1 | inconclusive: 158 µM [inhibitor, partial curve] |
| CCOC(=O)c1ccc(S(=O)(=O)NC2CC2)cc1 | inconclusive: 10 µM [inhibitor, partial curve, poor fit] |
| CC1(OC(=O)C2CCCC2)C(=O)C=C2C=C(c3ccsc3)N(C3CCCCC3)C=C2C1=O (stereo not given) | inconclusive: 44.7 µM [inhibitor, partial curve, poor fit] |
| O=C(Nc1ccccc1)C1=C[C@H](c2ccc(C(F)(F)F)cc2)C[C@H](OCCCCO)O1 | inconclusive: 44.7 µM [inhibitor, partial curve, poor fit] |
| CCCCN1C(=O)N(CCc2ccc(F)cc2)S(=O)(=O)c2cc(C(F)(F)F)ccc21 | inconclusive: 0.282 µM [inhibitor, full curve, poor fit] |
| CCCn1c(CN2CCN(C(=O)c3ccco3)CC2)nc2cc(S(=O)(=O)N(C)C)ccc21 | inactive |
| CC1=CC(C)(C)Nc2ccc(OC(=O)CN3C(=O)c4ccccc4C3=O)cc21 | inconclusive: 31.6 µM [inhibitor, partial curve] |
| Cc1oc2ncn(C)c(=O)c2c1C(=O)NCCCN(Cc1ccccc1)C(C)C | inconclusive: 50.1 µM [inhibitor, partial curve, poor fit] |
| COc1cccc2sc(N3CCN(C(=O)CCS(=O)(=O)c4ccc(F)cc4)CC3)nc12 | inconclusive: 1.12 µM [inhibitor, full curve, poor fit] |
| O=C(COC(=O)c1ccc([N+](=O)[O-])cc1)Nc1ccccc1C(=O)NC1CC1 | inconclusive: 44.7 µM [inhibitor, partial curve, poor fit] |
| O=C(O)CCC(=O)Nc1ccccc1Oc1ccccc1 | inactive |

| SMILES | Potency |
| --- | --- |
| CCCCN1C(=O)C(O)(c2c(C)[nH]c3ccccc23)c2ccccc21 (stereo not given) | inactive |
| O=C1N=C(N2C=CC(=C3C=CNC=C3)C=C2)/C(=C/N=NC(=O)c2ccccc2O)S1 | inconclusive: 56.2 µM [inhibitor, partial curve, poor fit] |
| CN1N=C(C(C)(C)C)CC1=O | inconclusive: 35.5 µM [inhibitor, partial curve, poor fit] |
| CCCNC(=O)CN1CCN(c2ncc(NC(=O)c3ccc(Cl)cc3)cc2C(=O)O)CC1 | inconclusive: 4.47 µM [inhibitor, partial curve] |
| Cc1ccc(/C=C/C(=O)Nc2ccc(O)c3c(=O)cc(-c4ccccc4Cl)oc23)cc1 | inconclusive: 0.316 µM [inhibitor, full curve] |
| O=C1CN(c2ccc(Br)cc2)C(=O)N1CC(=O)N1CCCc2ccccc21 | inconclusive: 25.1 µM [inhibitor, single point] |
| CCc1ccc(NC(=O)CSc2nc3ncccc3[nH]2)cc1 | inactive |
| CCN(CC)S(=O)(=O)c1ccc(C(=O)NCCSc2c(-c3ccc(OC)cc3)[nH]c3ccccc23)cc1 | inactive |
| Cn1c(N)c(C(=O)NCc2ccccc2)sc1=S | inactive |
| O=C(c1cn(CCOc2ccc(Cl)cc2)c2ccccc12)C1CCCCC1 | inconclusive: 35.5 µM [inhibitor, single point] |
| CCOc1ccc(-c2csc(Cn3c(CN4CCN(C)CC4)nc4ccccc4c3=O)n2)cc1 | inactive |
| COc1ccc(/C=C2/SC(=O)N(CCNC(=O)C3CC(=O)N(Cc4ccccc4)C3)C2=O)cc1 (stereo not given) | inconclusive: 0.282 µM [inhibitor, full curve, poor fit] |
| C#CCn1cc(/C=C2\NC(=O)NC2=O)c2ccccc21 | inconclusive: 50.1 µM [inhibitor, partial curve, poor fit] |
| COc1ccc(CNC(=O)C(c2cccs2)N(Cc2ccco2)C(=O)Cc2cccs2)cc1 (stereo not given) | inconclusive: 0.251 µM [inhibitor, full curve, poor fit] |
| O=c1c2ccccc2nnn1Cc1nnc(-c2ccccc2Br)o1 | inactive |
| COc1cc(OC)c(C(=O)NNC(=O)CN(C)S(=O)(=O)c2ccc(Cl)cc2)cc1OC | inconclusive: 11.2 µM [inhibitor, full curve] |
| Cc1ccccc1-n1cc[nH]c1=S | inconclusive: 3.98 µM [inhibitor, full curve, poor fit] |
| CCOC(=O)c1[nH]c2cc(OC)c(OC)cc2c1N | inconclusive: 50.1 µM [inhibitor, partial curve, poor fit] |
| COc1cccc(CNC(=O)C2CCN(S(=O)(=O)c3cccc4cccnc34)CC2)c1 | inconclusive: 0.501 µM [inhibitor, full curve, poor fit] |
| C[C@H]1CN([C@@H](C)CO)C(=O)c2cccc(NC(=O)Nc3ccc(C(F)(F)F)cc3)c2O[C@@H]1CN(C)S(=O)(=O)c1ccccc1 | inconclusive: 0.398 µM [inhibitor, full curve, poor fit] |

Two records picked at random from the list so far:

| SMILES | Potency |
| --- | --- |
| CCN(CC)S(=O)(=O)c1ccc(C(=O)NCCSc2c(-c3ccc(OC)cc3)[nH]c3ccccc23)cc1 | inactive |
| CCOc1ccc(-c2csc(Cn3c(CN4CCN(C)CC4)nc4ccccc4c3=O)n2)cc1 | inactive |
